Laboratory results published in the supplement of paper PMC10849652.
Some of the results follow.

Protein sequences, listed by entry. Tags and fused reporters are not part of them. Lines headed by an entry give the natural chain unless they say otherwise; changes in a name come on top.
UniProt Q6P1A2: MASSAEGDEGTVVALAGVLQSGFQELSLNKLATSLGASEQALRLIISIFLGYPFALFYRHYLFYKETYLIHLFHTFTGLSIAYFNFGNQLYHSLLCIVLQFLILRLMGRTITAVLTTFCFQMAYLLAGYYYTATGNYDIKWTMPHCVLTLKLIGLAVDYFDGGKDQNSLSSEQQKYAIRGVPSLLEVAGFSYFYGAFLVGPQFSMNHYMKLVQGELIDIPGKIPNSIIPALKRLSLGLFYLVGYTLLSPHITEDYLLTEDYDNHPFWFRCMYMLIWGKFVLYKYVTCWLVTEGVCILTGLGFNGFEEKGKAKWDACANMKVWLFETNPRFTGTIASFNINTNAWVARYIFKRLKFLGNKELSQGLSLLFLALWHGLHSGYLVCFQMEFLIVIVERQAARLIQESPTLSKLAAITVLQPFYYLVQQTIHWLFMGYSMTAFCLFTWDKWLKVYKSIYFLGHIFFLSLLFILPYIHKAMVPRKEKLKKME
UniProt P13473: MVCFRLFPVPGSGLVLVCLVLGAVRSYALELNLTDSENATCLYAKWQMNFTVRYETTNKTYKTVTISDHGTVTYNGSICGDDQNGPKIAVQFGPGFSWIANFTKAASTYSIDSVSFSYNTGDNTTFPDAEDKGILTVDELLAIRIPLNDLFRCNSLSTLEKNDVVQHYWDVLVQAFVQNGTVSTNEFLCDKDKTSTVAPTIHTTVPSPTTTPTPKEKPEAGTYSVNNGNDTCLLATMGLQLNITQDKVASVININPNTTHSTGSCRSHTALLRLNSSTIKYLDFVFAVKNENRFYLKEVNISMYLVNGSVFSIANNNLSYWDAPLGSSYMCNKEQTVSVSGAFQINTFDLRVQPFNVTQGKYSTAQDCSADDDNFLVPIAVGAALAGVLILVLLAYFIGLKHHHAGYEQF
UniProt Q03252: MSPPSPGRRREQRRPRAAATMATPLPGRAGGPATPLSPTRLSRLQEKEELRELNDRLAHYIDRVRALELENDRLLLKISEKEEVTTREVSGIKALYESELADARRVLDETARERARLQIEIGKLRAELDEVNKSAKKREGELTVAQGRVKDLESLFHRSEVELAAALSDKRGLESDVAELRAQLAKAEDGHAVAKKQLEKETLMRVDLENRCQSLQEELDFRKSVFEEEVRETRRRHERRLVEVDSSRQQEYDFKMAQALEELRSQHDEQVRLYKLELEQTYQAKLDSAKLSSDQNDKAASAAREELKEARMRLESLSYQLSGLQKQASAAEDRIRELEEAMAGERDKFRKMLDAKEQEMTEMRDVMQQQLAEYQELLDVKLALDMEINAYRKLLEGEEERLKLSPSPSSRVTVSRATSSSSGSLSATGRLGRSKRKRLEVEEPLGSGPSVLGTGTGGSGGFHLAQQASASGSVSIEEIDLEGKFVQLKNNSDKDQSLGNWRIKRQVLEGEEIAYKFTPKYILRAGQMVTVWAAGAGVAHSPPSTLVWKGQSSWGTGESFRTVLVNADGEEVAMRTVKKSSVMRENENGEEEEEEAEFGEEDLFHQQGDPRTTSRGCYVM
UniProt O75427: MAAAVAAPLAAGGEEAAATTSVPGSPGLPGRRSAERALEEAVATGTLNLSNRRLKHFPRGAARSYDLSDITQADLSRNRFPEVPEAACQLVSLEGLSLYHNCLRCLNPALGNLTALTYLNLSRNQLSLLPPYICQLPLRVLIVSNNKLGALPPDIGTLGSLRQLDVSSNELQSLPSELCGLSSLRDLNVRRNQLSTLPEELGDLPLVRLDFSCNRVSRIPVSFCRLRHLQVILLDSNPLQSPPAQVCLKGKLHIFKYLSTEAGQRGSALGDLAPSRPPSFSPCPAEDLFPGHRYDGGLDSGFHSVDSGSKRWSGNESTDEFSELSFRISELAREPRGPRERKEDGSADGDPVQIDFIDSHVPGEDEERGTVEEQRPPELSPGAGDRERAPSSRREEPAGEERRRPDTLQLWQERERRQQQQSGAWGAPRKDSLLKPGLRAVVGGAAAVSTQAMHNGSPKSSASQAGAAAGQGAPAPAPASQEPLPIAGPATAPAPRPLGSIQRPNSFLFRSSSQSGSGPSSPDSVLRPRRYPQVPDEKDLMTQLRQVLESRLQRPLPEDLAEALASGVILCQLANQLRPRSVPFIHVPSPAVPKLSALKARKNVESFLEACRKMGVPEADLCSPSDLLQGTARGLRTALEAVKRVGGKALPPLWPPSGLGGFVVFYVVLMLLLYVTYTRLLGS
UniProt P20700: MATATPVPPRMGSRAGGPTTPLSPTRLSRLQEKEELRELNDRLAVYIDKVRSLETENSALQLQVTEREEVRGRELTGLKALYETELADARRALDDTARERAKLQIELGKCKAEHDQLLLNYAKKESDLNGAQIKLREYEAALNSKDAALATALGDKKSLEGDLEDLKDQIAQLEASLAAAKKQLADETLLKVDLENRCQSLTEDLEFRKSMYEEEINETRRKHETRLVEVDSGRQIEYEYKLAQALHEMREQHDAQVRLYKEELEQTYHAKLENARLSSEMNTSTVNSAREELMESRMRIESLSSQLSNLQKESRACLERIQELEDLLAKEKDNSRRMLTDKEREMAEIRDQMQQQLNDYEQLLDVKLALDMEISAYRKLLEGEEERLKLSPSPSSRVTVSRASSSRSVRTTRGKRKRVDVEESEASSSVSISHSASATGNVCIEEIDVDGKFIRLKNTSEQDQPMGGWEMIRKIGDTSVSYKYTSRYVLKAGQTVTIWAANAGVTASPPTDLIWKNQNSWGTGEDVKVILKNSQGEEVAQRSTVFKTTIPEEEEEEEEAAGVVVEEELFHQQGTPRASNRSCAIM
UniProt Q9H9P8: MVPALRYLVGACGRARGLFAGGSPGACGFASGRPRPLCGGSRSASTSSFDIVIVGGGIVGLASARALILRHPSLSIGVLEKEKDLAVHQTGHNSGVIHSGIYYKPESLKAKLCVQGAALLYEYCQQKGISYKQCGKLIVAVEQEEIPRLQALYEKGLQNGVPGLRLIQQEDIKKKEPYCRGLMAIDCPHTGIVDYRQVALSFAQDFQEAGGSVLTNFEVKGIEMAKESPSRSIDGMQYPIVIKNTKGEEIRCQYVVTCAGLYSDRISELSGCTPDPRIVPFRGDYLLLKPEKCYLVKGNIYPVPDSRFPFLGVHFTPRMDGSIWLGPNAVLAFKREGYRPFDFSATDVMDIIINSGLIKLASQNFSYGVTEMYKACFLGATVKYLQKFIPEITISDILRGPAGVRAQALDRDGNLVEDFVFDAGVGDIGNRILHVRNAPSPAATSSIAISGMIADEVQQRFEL
UniProt Q9NUN5: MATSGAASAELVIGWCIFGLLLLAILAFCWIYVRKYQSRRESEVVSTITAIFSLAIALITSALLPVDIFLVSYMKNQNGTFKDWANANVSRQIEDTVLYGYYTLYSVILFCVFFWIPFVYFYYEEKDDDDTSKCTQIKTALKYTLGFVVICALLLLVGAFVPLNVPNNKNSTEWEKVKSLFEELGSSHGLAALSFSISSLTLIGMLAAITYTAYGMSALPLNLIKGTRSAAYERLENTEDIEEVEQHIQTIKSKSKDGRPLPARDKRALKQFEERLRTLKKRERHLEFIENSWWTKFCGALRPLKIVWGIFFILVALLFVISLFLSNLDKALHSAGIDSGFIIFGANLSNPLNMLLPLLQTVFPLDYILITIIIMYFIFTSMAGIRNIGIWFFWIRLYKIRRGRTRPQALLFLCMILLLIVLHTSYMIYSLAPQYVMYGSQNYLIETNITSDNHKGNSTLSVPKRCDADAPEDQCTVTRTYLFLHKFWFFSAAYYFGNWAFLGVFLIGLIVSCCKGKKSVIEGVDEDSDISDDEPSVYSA
UniProt Q86UP2: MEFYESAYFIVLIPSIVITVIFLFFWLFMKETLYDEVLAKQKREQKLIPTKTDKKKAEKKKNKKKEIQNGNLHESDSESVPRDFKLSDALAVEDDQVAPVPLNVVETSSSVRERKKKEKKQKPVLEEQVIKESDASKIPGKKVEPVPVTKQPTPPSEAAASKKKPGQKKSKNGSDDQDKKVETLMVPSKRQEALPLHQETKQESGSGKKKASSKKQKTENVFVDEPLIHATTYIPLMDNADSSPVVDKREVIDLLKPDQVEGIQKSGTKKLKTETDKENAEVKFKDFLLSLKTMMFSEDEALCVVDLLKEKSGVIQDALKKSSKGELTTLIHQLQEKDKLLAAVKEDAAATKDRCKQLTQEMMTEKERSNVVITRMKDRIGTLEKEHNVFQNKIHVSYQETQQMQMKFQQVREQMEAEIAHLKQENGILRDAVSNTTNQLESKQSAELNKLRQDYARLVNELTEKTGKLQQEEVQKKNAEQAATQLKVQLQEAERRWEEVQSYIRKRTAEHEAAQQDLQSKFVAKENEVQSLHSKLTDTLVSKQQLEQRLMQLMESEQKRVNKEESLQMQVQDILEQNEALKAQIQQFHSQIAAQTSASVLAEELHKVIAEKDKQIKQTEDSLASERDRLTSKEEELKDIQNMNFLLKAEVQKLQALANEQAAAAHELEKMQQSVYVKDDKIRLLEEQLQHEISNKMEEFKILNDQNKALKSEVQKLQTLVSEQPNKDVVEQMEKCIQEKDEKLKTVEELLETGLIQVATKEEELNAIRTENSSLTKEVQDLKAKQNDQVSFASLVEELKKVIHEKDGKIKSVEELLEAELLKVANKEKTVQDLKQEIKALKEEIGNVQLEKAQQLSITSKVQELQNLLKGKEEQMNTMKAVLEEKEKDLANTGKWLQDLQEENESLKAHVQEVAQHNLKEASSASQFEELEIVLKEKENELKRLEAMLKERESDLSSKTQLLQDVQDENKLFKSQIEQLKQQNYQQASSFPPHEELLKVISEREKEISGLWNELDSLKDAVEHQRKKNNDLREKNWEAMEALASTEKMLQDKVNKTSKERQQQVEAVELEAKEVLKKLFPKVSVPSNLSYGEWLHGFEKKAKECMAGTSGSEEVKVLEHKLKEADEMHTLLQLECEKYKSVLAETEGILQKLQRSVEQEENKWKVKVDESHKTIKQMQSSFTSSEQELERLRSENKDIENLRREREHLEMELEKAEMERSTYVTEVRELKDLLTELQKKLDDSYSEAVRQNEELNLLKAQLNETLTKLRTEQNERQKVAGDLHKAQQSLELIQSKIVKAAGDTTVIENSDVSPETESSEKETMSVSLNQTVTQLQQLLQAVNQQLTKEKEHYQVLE
UniProt Q92615, whole entry, looked up: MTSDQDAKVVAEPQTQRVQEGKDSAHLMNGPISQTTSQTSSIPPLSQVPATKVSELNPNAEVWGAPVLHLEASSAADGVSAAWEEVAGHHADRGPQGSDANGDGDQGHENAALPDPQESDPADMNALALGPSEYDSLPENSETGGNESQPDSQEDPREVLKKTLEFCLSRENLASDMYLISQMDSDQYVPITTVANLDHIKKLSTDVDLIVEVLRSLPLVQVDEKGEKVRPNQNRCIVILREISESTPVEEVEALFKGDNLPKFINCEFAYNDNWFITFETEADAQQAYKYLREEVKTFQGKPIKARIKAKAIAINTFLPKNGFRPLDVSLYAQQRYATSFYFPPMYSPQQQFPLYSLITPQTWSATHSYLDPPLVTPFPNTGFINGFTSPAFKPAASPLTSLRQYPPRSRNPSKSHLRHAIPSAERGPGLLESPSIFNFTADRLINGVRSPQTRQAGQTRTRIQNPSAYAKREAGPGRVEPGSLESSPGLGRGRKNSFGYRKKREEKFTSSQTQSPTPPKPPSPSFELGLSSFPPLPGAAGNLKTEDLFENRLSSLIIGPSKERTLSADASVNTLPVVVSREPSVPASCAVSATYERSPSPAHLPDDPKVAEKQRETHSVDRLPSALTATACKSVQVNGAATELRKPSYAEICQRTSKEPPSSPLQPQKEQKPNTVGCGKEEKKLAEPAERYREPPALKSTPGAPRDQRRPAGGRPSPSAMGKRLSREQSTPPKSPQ
UniProt Q68DH5: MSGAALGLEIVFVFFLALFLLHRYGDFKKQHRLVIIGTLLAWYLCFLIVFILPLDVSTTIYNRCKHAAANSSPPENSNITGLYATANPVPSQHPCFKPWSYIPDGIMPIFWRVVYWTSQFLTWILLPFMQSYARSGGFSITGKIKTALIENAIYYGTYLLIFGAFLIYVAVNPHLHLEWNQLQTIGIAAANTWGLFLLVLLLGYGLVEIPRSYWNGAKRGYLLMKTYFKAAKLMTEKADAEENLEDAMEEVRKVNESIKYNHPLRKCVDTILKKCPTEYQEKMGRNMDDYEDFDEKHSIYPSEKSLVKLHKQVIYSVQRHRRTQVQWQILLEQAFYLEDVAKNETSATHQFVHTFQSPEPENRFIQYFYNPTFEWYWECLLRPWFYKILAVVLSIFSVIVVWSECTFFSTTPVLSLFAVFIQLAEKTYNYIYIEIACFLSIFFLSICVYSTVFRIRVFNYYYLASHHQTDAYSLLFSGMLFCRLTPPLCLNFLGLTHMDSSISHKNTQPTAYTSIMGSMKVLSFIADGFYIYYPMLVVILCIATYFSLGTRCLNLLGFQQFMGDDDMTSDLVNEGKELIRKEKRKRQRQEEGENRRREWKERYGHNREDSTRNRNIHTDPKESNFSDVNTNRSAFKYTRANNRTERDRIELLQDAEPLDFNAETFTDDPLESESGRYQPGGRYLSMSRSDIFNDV

How the values were obtained:
Assay in all cases: log2 fold change, soluble protein after heating vs DMSO (PISA); higher = thermal stabilisation; K562 cells, 10 uM, 30 min; active = over 0.2 and 3.5 SD of the protein, either way, in both replicates (recomputed)
saracatinib = compound: CN1CCN(CCOc2cc(OC3CCOCC3)c3c(Nc4c(Cl)ccc5c4OCO5)ncnc3c2)CC1 [saracatinib]
How it was run: (§1)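 K562 cells (2×10^6 cells/mL) were treated with 10 μM compound for 30 min, and aliquots were heated for 3 min over 48°C-58°C. Pooled aliquots were extracted in PBS with 0.5% NP-40 at 4°C, and the supernatant after 21,000xg for 90 min was measured by TMTpro 16plex LC-MS/MS with channel sums equalised. Reported thermal stability, relative to control samples and from duplicates, is a log2 fold change.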

sotrastaurin = compound: CN1CCN(c2nc(C3=C(c4c[nH]c5ccccc45)C(=O)NC3=O)c3ccccc3n2)CC1 [sotrastaurin]
How it was run: as §1

Tubastatin A = compound: CN1CCc2c(c3ccccc3n2Cc2ccc(C(=O)NO)cc2)C1 [Tubastatin A]
How it was run: as §1

[1] = compound: CNC(=O)C1=CC=CC=C1NC2=NC(=NC=C2Cl)NC3=C(C=C(C=C3)N4CCOCC4)OC
How it was run: as §1

defactinib = compound: CNC(=O)c1ccc(Nc2ncc(C(F)(F)F)c(NCc3nccnc3N(C)S(C)(=O)=O)n2)cc1 [defactinib]
How it was run: as §1

rucaparib = compound: CNCc1ccc(-c2[nH]c3cc(F)cc4c3c2CCNC4=O)cc1 [rucaparib]
How it was run: as §1

[2] = compound: CNc1nc(-c2ccc3c(N)n[nH]c3c2)cc(N2C[C@@H](C(=O)NC3CCCCC3)CC[C@H]2C)n1
How it was run: as §1

encorafenib = compound: COC(=O)N[C@@H](C)CNc1nccc(-c2cn(C(C)C)nc2-c2cc(Cl)cc(NS(C)(=O)=O)c2F)n1 [encorafenib]
How it was run: as §1

[3] = compound: COC(=O)[C@H](CCSC)NC(=O)C1=C(C=C(C=C1)NC[C@H](CS)N)C2=CC=CC=C2
How it was run: as §1

Measured: log2 fold change

LPCAT3 (UniProt Q6P1A2)
inactive: saracatinib -0.048 | sotrastaurin -0.14 | Tubastatin A 0 | [1] 0.093 | defactinib 0 | rucaparib -0.074 | [2] 0.138 | encorafenib -0.026 | [3] -0.021

LAMP2 (UniProt P13473)
inactive: saracatinib 0.078 | sotrastaurin 0.123 | Tubastatin A -0.061 | [1] 0.105 | defactinib -0.047 | rucaparib -0.055 | [2] -0.088 | encorafenib -0.026 | [3] 0.062

LMNB2 (UniProt Q03252)
inactive: saracatinib -0.031 | sotrastaurin -0.127 | Tubastatin A 0.02 | [1] 0.027 | defactinib -0.201 | rucaparib -0.085 | [2] -0.073 | encorafenib -0.009 | [3] 0.049

LRCH4 (UniProt O75427)
inactive: saracatinib -0.097 | sotrastaurin -0.068 | rucaparib 0.272 | [2] 0.113 | encorafenib 0.379

LRBA, A0A494BZW2
inactive: saracatinib -0.005 | sotrastaurin 0.065 | Tubastatin A -0.42 | [1] -0.368 | rucaparib -0.055 | [2] -0.008 | encorafenib 0.041

LMNB1 (UniProt P20700)
inactive: saracatinib 0.029 | sotrastaurin -0.11 | Tubastatin A -0.016 | [1] 0.007 | defactinib -0.166 | rucaparib -0.035 | [2] -0.095 | encorafenib 0.016 | [3] 0.032

L2HGDH (UniProt Q9H9P8)
inactive: saracatinib -0.009 | sotrastaurin 0.091 | Tubastatin A -0.002 | [1] -0.017 | defactinib -0.011 | rucaparib -0.005 | [2] 0.012 | encorafenib -0.022 | [3] 0.049

LMBRD1 (UniProt Q9NUN5)
inactive: saracatinib 0.154 | sotrastaurin 0.023 | Tubastatin A 0.098 | [1] 0.052 | defactinib 0.047 | rucaparib -0.023 | [2] -0.173 | encorafenib 0.053 | [3] -0.057

KTN1 (UniProt Q86UP2)
inactive: saracatinib 0.001 | sotrastaurin -0.07 | Tubastatin A 0.032 | [1] -0.12 | defactinib 0.109 | rucaparib 0.155 | [2] -0.079 | encorafenib 0.137 | [3] -0.053

LARP4B (UniProt Q92615)
inactive: saracatinib -0.009 | sotrastaurin -0.083 | Tubastatin A -0.033 | [1] -0.025 | defactinib -0.037 | rucaparib 0.273 | [2] 0.02 | encorafenib 0.094 | [3] 0.032

LDLR (UniProt P01130)
inactive: saracatinib 0.113 | sotrastaurin 0.003 | Tubastatin A -0.002 | [1] 0.003 | defactinib -0.033 | rucaparib 0 | [2] -0.065 | encorafenib 0.01 | [3] 0.104

Looked up one by one from above, 2 records:
LMBRD1 (UniProt Q9NUN5)
inactive: saracatinib 0.154 | sotrastaurin 0.023 | Tubastatin A 0.098 | [1] 0.052 | defactinib 0.047 | rucaparib -0.023 | [2] -0.173 | encorafenib 0.053 | [3] -0.057

LMNB2 (UniProt Q03252)
inactive: saracatinib -0.031 | sotrastaurin -0.127 | Tubastatin A 0.02 | [1] 0.027 | defactinib -0.201 | rucaparib -0.085 | [2] -0.073 | encorafenib -0.009 | [3] 0.049

Next records follow:

LMBRD2 (UniProt Q68DH5)
inactive: saracatinib 0.04 | sotrastaurin 0.02 | Tubastatin A -0.032 | [1] -0.014 | defactinib -0.01 | rucaparib 0.003 | [2] -0.037 | encorafenib 0.021 | [3] -0.021
